The list shows a part of the results. Small differences around the control level are noise.

Sequences of proteins named here, by UniProt entry; tags and fusion partners are left off. A change or cut given only in a name is not applied to a line headed by its entry.
UniProt Q8N2G8: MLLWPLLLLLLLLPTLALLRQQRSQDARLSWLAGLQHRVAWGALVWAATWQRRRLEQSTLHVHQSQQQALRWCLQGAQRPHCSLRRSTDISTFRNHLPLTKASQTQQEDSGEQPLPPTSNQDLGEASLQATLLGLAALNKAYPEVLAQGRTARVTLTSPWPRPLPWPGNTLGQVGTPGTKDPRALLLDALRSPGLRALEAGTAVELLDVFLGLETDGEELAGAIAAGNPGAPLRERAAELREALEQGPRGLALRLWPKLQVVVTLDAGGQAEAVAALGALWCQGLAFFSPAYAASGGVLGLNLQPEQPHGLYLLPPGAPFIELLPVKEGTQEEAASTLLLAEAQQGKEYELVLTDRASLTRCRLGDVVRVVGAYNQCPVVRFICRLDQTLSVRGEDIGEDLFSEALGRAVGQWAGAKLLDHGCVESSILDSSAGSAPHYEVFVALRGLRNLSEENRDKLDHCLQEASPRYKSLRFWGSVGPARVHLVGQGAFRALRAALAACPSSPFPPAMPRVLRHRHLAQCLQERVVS
UniProt Q8N344: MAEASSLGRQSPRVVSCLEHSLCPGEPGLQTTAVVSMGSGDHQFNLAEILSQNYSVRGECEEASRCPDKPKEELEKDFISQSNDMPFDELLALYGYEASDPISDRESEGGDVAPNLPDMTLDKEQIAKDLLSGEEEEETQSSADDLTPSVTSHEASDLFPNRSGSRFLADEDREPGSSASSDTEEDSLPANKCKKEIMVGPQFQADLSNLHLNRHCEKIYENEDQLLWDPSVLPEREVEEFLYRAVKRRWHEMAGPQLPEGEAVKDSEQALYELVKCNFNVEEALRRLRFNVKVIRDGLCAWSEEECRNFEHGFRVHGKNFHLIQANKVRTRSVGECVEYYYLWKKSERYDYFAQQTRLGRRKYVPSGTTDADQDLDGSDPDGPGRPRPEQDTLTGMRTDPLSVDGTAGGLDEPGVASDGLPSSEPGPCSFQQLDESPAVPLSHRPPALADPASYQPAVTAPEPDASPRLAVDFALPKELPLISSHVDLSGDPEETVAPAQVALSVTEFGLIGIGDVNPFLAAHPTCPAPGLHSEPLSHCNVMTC
UniProt Q8NFZ5: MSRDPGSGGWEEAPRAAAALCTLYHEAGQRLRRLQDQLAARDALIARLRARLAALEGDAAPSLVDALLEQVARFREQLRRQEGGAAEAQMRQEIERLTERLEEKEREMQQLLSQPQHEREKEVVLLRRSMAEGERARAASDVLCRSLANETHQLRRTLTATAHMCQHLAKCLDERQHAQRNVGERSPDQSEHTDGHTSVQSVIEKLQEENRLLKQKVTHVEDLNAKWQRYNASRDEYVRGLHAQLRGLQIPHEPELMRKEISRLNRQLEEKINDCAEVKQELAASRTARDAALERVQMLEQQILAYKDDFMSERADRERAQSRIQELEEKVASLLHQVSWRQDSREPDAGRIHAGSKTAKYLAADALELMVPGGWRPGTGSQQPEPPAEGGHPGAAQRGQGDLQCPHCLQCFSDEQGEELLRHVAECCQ
UniProt Q8N9N7: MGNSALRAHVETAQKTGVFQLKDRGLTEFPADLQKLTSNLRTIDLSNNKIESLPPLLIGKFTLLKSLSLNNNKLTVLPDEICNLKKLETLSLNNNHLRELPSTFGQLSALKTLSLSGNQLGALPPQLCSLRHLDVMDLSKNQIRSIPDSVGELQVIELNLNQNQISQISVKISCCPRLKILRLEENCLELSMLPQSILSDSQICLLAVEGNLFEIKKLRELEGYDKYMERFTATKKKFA
UniProt Q8N831: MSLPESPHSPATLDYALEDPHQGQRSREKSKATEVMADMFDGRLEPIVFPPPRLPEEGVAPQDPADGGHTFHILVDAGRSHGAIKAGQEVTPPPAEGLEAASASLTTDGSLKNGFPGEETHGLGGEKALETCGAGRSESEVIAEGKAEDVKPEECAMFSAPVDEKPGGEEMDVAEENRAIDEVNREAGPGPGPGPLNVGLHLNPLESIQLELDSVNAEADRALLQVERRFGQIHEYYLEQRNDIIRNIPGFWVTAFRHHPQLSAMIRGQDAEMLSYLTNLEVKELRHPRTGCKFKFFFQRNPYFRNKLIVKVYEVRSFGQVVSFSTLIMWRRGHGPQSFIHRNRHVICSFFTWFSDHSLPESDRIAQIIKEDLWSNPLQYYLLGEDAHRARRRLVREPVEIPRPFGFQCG
UniProt Q8NG68: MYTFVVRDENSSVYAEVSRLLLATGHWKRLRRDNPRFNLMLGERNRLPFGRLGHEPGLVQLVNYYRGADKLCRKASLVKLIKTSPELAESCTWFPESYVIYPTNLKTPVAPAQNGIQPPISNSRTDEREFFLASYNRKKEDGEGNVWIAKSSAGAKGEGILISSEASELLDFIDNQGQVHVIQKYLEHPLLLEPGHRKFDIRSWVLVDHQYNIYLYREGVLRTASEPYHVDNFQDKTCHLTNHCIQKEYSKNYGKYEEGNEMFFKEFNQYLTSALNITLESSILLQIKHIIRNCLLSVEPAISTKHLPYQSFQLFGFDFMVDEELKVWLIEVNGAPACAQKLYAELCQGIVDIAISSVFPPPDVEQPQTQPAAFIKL
UniProt Q8NI37: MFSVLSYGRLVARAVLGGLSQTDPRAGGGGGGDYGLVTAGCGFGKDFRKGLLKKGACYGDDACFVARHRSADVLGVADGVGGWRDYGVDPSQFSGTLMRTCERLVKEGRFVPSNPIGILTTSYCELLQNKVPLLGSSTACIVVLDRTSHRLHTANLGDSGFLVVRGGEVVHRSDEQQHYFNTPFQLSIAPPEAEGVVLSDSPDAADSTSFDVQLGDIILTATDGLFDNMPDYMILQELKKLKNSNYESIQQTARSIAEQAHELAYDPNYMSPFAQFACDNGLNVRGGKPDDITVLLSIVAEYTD
UniProt Q8NB16: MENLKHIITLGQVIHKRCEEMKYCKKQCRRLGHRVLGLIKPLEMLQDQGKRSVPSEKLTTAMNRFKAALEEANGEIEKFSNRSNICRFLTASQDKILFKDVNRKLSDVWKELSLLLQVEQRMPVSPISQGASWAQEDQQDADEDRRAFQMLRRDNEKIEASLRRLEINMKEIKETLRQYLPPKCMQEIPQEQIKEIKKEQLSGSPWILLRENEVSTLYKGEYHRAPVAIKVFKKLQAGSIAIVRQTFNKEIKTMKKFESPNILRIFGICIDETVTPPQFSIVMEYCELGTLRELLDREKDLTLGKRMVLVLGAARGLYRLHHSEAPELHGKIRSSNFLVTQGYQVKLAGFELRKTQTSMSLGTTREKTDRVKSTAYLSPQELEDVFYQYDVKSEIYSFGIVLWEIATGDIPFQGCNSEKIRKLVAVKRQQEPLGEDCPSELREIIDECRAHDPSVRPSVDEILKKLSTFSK
UniProt Q8NG27: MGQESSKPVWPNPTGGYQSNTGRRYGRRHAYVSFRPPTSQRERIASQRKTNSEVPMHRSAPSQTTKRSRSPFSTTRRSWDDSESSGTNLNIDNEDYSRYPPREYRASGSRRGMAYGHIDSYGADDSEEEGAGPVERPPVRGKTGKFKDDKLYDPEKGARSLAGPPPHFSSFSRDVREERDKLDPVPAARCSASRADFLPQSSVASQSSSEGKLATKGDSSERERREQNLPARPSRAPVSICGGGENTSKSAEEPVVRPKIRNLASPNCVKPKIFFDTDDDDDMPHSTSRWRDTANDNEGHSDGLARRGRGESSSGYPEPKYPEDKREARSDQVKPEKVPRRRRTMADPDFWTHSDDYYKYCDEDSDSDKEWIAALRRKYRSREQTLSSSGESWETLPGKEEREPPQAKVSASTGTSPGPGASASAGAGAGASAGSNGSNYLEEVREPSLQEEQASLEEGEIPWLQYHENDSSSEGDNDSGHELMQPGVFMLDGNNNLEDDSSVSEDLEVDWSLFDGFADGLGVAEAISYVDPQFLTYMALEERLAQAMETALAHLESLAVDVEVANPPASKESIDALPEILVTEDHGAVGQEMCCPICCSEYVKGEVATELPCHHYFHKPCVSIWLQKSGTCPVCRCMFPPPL
UniProt Q8N7M2: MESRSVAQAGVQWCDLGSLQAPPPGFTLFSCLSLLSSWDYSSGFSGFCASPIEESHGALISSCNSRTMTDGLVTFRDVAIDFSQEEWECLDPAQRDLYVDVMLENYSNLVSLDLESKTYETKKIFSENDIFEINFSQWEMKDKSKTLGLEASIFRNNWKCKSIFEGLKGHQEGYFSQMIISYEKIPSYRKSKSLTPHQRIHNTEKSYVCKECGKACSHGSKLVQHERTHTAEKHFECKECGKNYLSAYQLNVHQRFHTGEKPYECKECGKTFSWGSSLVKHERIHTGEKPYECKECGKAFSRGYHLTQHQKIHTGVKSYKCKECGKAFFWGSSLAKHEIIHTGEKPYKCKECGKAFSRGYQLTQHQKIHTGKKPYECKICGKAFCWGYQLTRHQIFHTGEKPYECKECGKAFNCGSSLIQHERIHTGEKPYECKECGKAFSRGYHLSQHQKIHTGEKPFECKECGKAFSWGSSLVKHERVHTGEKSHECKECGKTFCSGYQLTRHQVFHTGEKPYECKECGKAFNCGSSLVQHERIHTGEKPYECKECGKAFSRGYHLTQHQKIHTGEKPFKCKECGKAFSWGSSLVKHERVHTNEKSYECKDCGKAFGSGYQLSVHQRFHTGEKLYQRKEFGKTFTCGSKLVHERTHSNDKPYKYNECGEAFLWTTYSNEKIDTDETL
UniProt Q8N2W9: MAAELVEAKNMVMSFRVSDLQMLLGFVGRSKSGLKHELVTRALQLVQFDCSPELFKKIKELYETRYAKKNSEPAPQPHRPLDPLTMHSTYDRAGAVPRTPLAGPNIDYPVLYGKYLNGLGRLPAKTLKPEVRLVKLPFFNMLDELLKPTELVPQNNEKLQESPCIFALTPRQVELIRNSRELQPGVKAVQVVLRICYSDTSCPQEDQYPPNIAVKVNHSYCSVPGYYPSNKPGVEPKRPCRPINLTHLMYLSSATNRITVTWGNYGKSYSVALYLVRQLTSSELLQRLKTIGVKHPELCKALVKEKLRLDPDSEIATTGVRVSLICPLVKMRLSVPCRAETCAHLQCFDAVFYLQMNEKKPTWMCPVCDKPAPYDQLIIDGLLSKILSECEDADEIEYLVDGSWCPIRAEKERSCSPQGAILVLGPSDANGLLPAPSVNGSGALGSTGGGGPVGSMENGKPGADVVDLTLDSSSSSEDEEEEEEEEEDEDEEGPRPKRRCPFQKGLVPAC
UniProt Q8NHY2, whole entry: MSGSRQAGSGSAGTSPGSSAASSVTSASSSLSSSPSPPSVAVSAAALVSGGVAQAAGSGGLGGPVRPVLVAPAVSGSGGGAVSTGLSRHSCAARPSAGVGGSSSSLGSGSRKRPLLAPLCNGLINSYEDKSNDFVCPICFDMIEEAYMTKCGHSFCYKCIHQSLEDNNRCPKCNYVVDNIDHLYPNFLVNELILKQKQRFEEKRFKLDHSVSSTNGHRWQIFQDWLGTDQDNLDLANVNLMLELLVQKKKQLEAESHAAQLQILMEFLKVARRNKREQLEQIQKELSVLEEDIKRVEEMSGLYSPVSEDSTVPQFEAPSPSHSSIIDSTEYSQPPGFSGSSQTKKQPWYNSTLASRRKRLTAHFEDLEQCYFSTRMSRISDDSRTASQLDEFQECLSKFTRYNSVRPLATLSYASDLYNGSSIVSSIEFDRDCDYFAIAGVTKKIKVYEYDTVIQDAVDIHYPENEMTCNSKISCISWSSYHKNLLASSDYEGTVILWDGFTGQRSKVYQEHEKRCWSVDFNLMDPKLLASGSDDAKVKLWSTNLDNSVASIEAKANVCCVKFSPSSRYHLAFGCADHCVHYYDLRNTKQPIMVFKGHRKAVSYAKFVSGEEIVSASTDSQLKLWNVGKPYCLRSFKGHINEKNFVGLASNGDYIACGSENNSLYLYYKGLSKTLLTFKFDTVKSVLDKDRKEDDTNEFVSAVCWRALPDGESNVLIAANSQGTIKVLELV
UniProt Q8NC44: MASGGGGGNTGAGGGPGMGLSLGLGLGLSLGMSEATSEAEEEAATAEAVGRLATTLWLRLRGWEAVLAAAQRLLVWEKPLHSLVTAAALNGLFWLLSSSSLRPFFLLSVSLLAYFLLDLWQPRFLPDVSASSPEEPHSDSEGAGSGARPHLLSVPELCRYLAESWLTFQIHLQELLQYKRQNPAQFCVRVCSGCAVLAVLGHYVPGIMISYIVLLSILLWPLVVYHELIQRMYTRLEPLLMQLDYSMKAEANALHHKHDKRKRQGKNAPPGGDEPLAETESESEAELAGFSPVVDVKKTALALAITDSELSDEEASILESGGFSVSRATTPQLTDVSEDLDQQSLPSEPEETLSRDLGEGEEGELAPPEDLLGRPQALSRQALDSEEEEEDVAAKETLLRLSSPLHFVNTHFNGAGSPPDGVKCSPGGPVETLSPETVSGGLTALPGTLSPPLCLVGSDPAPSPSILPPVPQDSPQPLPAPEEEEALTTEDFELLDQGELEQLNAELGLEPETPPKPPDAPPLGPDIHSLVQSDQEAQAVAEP

Compound in the assay: Cc1nc(Nc2ncc(C(=O)Nc3c(C)cccc3Cl)s2)cc(N2CCN(CCO)CC2)n1 [dasatinib]
As to the kind of experiment: log2 fold change of tryptic peptide abundance, ligand vs vehicle (limited proteolysis) (log2 ratio); higher = more trypsin-susceptible (destabilized). Conditions: ligand concentration: 5 uM; sample: K562 cleared lysate.
Consider “WDSUB1 (peptide sequence: EAMENWISK, peptide start residue: 432) (UniProt Q8N9V3)”, for which the log2 fold change is -0.199.
The figure for “GHDC (peptide sequence: STDISTFR, peptide start residue: 87) (UniProt Q8N2G8)” is -0.218; for “TMEM199 (peptide sequence: IQLANEEYKR, peptide start residue: 108) (UniProt Q8N511)” it is 0.284; for “NAV1 (peptide sequence: TPLAPLAPNLGKPSRIPR, peptide start residue: 159) (UniProt Q8NEY1)” it is -0.484.
On to “NKAP (peptide sequence: TKAEEPSDLIGPEAPK, peptide start residue: 282) (UniProt Q8N5F7)”, for which the log2 fold change was -0.0654.
Then “NIN (peptide sequence: LQQENSILR, peptide start residue: 798) (UniProt Q8N4C6)”, with 0.298.
In the case of “MIER2 (peptide sequence: SERYDYFAQQTR, peptide start residue: 327) (UniProt Q8N344)”, the log2 fold change is 0.471.
Then “TNIP2 (peptide sequence: EMQQLLSQPQHER, peptide start residue: 107) (UniProt Q8NFZ5)”, with -0.165; and “LRRC57 (peptide sequence: AHVETAQK, peptide start residue: 8) (UniProt Q8N9N7)”, with -0.153.
As for “TSPYL6 (peptide sequence: FGQIHEYYLEQR, peptide start residue: 230) (UniProt Q8N831)”, the log2 fold change stood at 0.127.
Turning to “TTL (peptide sequence: LGHEPGLVQLVNYYR, peptide start residue: 52) (UniProt Q8NG68)”, the log2 fold change was found to be 0.197.
Then “METTL4 (peptide sequence: NADVNVLPIPDHK, peptide start residue: 395) (UniProt Q8N3J2)”, with 0.321; and “PPTC7 (peptide sequence: AVLGGLSQTDPR, peptide start residue: 14) (UniProt Q8NI37)”, with 0.089; and “UniProt Q8NB25 (peptide sequence: LQNELDLTK, peptide start residue: 583)”, with 0.0424.
Then “APPL2 (peptide sequence: VKTEVGKEVAAAR, peptide start residue: 159) (UniProt Q8NEU8)”, with -0.151.
The figure for “WDR19 (peptide sequence: DCGAILENMK, peptide start residue: 845) (UniProt Q8NEZ3)” is 0.379; for “PDCD7 (peptide sequence: KGVCPPASADETFTHHLQR, peptide start residue: 336) (UniProt Q8N8D1)” it is -0.258; for “THOC2 (peptide sequence: YITSCEMVMAPVHEAVVSLHVSK, peptide start residue: 849) (UniProt Q8NI27)” it is 0.223.
For “CCDC71L (peptide sequence: DVYGYSSCR, peptide start residue: 97) (UniProt Q8N9Z2)”, the log2 fold change was -0.368.
Then “MLKL (peptide sequence: ENEVSTLYK, peptide start residue: 211) (UniProt Q8NB16)”, with 0.664; and “UniProt Q8NG27 (peptide sequence: DKLDPVPAAR, peptide start residue: 180)”, with -0.0189.
As to “UniProt Q8N7M2 (peptide sequence: HERVHTNEK, peptide start residue: 589)”, the log2 fold change was -0.694.
For the target “VPS37A (peptide sequence: QTVLDKYELLTQMK, peptide start residue: 295) (UniProt Q8NEZ2)”, the log2 fold change is 0.119.
Regarding “PIAS4 (peptide sequence: NSEPAPQPHRPLDPLTMHSTYDR, peptide start residue: 70) (UniProt Q8N2W9)”, the log2 fold change is -0.294.
Then “UniProt Q8NHY2 (peptide sequence: ELSVLEEDIK, peptide start residue: 285)”, with 0.398; and “UniProt Q8NC44 (peptide sequence: AEANALHHK, peptide start residue: 249)”, with -0.554.

Source of the values: the supplement of paper PMC12819154, “High-throughput peptide-centric local stability assay extends protein–ligand identification to membrane proteins, tissues and bacteria” (Nature Structural & Molecular Biology, 2025).
